PubChem BioAssay AID1671195 | Yale University – 2021

- Purpose: 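Knockdowns that increase or decrease uptake of fluorescent LDL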 (primary screen)
- Cell system: human Huh7 hepatoma cells
- Reagent: siRNA pool against human genes, 18 nM
- Timing: about 2 to 2.5 days of knockdown, then 8 h LDL uptake
- Challenge: DiI-labelled LDL at 30 µg/ml for 8 h, in lipoprotein-deficient serum medium
- Measured: 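Per-cell DiI-LDL intensity by automated imaging; well means scaled to the plate median and given as a robust z-score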
- Scale: robust z-score: higher = more LDL uptake after knockdown
- Hit rule: 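a gene counts as active if at least two replicate z-scores exceed ±2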
Shown is an unselected part of about 22,000 reagents tested. About 1,510 of all reagents (6.9%) count as active. 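Active includes knockdowns raising or lowering LDL uptake; positive z-scores mean more uptake, negative mean less.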

LPXN (leupaxin)
- robust z-score, replicate 1: -0.927
- robust z-score, replicate 2: -0.68
- robust z-score, replicate 3: -0.983
- Outcome: inactive

MATN4 (matrilin 4)
- robust z-score, replicate 1: -0.579
- robust z-score, replicate 2: -0.0056
- robust z-score, replicate 3: -0.228
- Outcome: inactive

ZBTB2 (zinc finger and BTB domain containing 2)
- robust z-score, replicate 1: -0.495
- robust z-score, replicate 2: -0.619
- robust z-score, replicate 3: -0.929
- Outcome: inactive

SBNO2 (strawberry notch homolog 2)
- robust z-score, replicate 1: -0.915
- robust z-score, replicate 2: -1.15
- robust z-score, replicate 3: -0.947
- Outcome: inactive

BFAR (bifunctional apoptosis regulator)
- robust z-score, replicate 1: 0.707
- robust z-score, replicate 2: 0.703
- robust z-score, replicate 3: 0.143
- Outcome: inactive

LOC388568 (retired record)
- robust z-score, replicate 1: -1.56
- robust z-score, replicate 2: -0.834
- robust z-score, replicate 3: -1.58
- Outcome: inactive

EBAG9 (estrogen receptor binding site associated antigen 9)
- robust z-score, replicate 1: 0.239
- robust z-score, replicate 2: -0.334
- robust z-score, replicate 3: 0.618
- Outcome: inactive

Continued, starting with the last 2 of the part before.
LOC388568 (retired record)
- robust z-score, replicate 1: -1.56
- robust z-score, replicate 2: -0.834
- robust z-score, replicate 3: -1.58
- Outcome: inactive

EBAG9 (estrogen receptor binding site associated antigen 9)
- robust z-score, replicate 1: 0.239
- robust z-score, replicate 2: -0.334
- robust z-score, replicate 3: 0.618
- Outcome: inactive

CPXM1 (carboxypeptidase X, M14 family member 1)
- robust z-score, replicate 1: 0.425
- robust z-score, replicate 2: -0.0759
- robust z-score, replicate 3: 0.512
- Outcome: inactive

TNNT3 (troponin T3, fast skeletal type)
- robust z-score, replicate 1: -0.564
- robust z-score, replicate 2: 0.432
- robust z-score, replicate 3: -0.257
- Outcome: inactive

AACSP1 (acetoacetyl-CoA synthetase pseudogene 1)
- robust z-score, replicate 1: 1.9
- robust z-score, replicate 2: 1.41
- robust z-score, replicate 3: 2.71
- Outcome: active

OR2H2 (olfactory receptor family 2 subfamily H member 2)
- robust z-score, replicate 1: -0.0419
- robust z-score, replicate 2: -1.32
- robust z-score, replicate 3: 0.159
- Outcome: inactive

EPM2A (EPM2A glucan phosphatase, laforin)
- robust z-score, replicate 1: -0.14
- robust z-score, replicate 2: -0.269
- robust z-score, replicate 3: 0.203
- Outcome: inactive

LOC344382
- robust z-score, replicate 1: -0.0394
- robust z-score, replicate 2: -0.392
- robust z-score, replicate 3: -0.101
- Outcome: inactive

FLJ31132 (retired record)
- robust z-score, replicate 1: 0.736
- robust z-score, replicate 2: -0.275
- robust z-score, replicate 3: -0.676
- Outcome: inactive

ZNF737 (zinc finger protein 737)
- robust z-score, replicate 1: -0.379
- robust z-score, replicate 2: -0.0547
- robust z-score, replicate 3: -0.429
- Outcome: inactive

TIPARP (TCDD inducible poly(ADP-ribose) polymerase)
- robust z-score, replicate 1: -1.12
- robust z-score, replicate 2: -3.01
- robust z-score, replicate 3: -0.754
- Outcome: inactive
